Consider one molecule from PMC4691038.

Amino acid sequences for entries named in this document (tags omitted). A change or cut given only in a name is not applied to a line headed by its entry.
UniProt Q9NZM3: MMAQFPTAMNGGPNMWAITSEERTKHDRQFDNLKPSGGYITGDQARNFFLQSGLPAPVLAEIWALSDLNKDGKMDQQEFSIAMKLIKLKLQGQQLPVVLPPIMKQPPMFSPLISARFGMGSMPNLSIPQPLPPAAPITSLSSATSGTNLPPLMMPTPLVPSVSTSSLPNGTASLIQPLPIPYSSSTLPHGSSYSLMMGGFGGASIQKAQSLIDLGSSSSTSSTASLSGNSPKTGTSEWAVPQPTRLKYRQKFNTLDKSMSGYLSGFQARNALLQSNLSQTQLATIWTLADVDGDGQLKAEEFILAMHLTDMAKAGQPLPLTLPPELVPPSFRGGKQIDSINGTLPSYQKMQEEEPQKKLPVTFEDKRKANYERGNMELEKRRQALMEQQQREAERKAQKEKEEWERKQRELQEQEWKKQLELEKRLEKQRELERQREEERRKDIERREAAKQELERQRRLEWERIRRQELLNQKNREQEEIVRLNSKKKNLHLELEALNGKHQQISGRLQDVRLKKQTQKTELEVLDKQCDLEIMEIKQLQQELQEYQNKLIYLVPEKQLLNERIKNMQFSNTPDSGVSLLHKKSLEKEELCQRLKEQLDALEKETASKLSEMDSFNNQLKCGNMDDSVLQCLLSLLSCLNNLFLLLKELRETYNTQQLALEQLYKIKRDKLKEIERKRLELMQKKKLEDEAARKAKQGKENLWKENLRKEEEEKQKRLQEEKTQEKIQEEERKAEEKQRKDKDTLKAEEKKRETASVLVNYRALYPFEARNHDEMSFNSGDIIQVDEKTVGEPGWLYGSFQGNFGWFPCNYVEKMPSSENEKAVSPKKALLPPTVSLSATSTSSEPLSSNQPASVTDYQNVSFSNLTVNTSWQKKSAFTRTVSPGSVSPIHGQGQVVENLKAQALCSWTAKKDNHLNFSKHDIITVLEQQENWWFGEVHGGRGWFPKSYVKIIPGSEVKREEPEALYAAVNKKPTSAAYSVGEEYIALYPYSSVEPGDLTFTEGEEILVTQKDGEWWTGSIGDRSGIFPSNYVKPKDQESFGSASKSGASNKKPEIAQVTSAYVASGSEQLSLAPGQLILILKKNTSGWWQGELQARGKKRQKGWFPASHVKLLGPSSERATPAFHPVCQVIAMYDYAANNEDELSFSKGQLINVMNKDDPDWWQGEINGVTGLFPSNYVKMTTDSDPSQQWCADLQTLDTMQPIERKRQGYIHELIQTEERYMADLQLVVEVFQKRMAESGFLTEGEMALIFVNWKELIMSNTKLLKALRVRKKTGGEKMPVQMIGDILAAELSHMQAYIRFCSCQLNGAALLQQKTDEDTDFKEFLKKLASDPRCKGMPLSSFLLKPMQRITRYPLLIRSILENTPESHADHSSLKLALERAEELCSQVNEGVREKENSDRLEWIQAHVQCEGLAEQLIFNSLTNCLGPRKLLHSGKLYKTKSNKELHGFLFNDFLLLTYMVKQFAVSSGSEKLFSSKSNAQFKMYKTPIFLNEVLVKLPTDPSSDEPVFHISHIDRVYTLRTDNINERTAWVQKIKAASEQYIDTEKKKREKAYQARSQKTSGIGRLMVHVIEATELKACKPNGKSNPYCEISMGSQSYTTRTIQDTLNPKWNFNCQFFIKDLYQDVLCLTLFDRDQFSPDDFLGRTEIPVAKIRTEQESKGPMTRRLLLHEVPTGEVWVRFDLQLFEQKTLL

For this test, the target named is ITSN2L coiled-coil domain expressed from pDBLeu-ITSN2L-CC (human) (UniProt Q9NZM3). As to the kind of experiment: two-hybrid; directed test in yeast MaV203: pDBLeu baits with pPC86 preys, Beta-Gal assay (blue colonies).

Results are given in words; binding and its absence hold for the method and conditions named. Binding calls can cover weak binding; strength is not graded here.

B1: RABEP1 (rabaptin-5) expressed from pPC86-RABEP1 (protein, UniProt Q15276 1-862)
chain: MAQPGPASQPDVSLQQRVAELEKINAEFLRAQQQLEQEFNQKRAKFKELYLAKEEDLKRQNAVLQAAQDDLGHLRTQLWEAQAEMENIKAIATVSENTKQEAIDEVKRQWREEVASLQAVMKETVRDYEHQFHLRLEQERTQWAQYRESAEREIADLRRRLSEGQEEENLENEMKKAQEDAEKLRSVVMPMEKEIAALKDKLTEAEDKIKELEASKVKELNHYLEAEKSCRTDLEMYVAVLNTQKSVLQEDAEKLRKELHEVCHLLEQERQQHNQLKHTWQKANDQFLESQRLLMRDMQRMEIVLTSEQLRQVEELKKKDQEDDEQQRLNKRKDHKKADVEEEIKIPVVCALTQEESSAQLSNEEEHLDSTRGSVHSLDAGLLLPSGDPFSKSDNDMFKDGLRRAQSTDSLGTSGSLQSKALGYNYKAKSAGNLDESDFGPLVGADSVSENFDTASLGSLQMPSGFMLTKDQERAIKAMTPEQEETASLLSSVTQGMESAYVSPSGYRLVSETEWNLLQKEVHNAGNKLGRRCDMCSNYEKQLQGIQIQEAETRDQVKKLQLMLRQANDQLEKTMKDKQELEDFIKQSSEDSSHQISALVLRAQASEILLEELQQGLSQAKRDVQEQMAVLMQSREQVSEELVRLQKDNDSLQGKHSLHVSLQQAEDFILPDTTEALRELVLKYREDIINVRTAADHVEEKLKAEILFLKEQIQAEQCLKENLEETLQLEIENCKEEIASISSLKAELERIKVEKGQLESTLREKSQQLESLQEIKISLEEQLKKETAAKATVEQLMFEEKNKAQRLQTELDVSEQVQRDFVKLSQTLQVQLERIRQADSLERIRAILNDTKLTDINQLPET
With B1, the binding result is recorded as “binds”.
